# Measured values from PubChem BioAssay AID1671190 (National Center for Advancing Translational Sciences (NCATS), 2021).
# Sequences of proteins named here, by UniProt entry; tags and fusion partners are left off. A change or cut given only in a name is not applied to a line headed by its entry.
# UniProt P18054: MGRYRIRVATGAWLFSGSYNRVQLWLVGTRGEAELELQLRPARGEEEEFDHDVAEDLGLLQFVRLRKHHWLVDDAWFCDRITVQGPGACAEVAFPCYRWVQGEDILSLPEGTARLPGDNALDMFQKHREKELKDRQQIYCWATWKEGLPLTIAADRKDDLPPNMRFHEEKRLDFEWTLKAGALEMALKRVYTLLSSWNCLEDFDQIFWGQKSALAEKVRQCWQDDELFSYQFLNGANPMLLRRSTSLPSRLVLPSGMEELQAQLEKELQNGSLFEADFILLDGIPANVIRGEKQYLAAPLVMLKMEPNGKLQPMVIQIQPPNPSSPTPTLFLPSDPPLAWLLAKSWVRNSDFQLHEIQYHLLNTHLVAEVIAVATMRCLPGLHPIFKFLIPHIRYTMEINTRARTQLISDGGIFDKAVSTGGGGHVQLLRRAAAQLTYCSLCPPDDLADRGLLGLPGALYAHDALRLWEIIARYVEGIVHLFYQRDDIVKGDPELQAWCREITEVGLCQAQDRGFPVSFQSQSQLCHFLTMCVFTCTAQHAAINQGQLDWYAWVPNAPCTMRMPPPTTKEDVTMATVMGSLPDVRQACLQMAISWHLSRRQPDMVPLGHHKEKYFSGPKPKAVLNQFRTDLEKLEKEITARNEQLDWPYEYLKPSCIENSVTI
# Values joined by “and” are separate entries in the source; they are usually repeats but may differ in a detail not shown here. Equal entries are not always repeated. About 6,100 (1.1%) of roughly 580,000 compounds were called active. The shares of active, inactive and inconclusive entries below differ from those in the screen. The call rests on the fitted dose curve; in most records, active means well fitted inhibition curve with a large enough effect; inconclusive means small, poorly fitted or top-dose-only effect, or another doubt; inactive means no such curve, though single readings can be large or run the other way. Where the call is inconclusive, the potency comes from a doubtful curve fit.
# Molecular target: Polyunsaturated fatty acid lipoxygenase ALOX12 (Homo sapiens) (UniProt P18054)
# Test: Primary qHTS assay for inhibitors of human arachidonate 12S-lipoxygenase (ALOX12): Round 2
# Settings: purified 12hLO, xylenol orange hydroperoxide absorbance; activity change, negative = inhibition: at 108 µM (top of the series) unless noted
# Summary of the method: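 Purified human 12hLO at 150 nM in 25 mM Hepes, 0.01% Triton X-100, pH 7.0, preincubated 15 min at room temperature with compound. Reaction started with 40 uM arachidonic acid, 30 min at room temperature. Hydroperoxide measured by Fe-xylenol orange, 573/405 nm absorbance ratio.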
# On the % scale 0 is the no-effect control and ±100 the full control effect; potency means the concentration at half of the fitted maximal effect.
SMILES,Potency,"activity change, negative = inhibition"
c1ccc(-c2ccc(CNCc3cccnc3)o2)cc1,"inconclusive: 39.8 µM [inhibitor, partial curve, poor fit]",
CCN(CC(=O)Nc1ccccc1OC)CC(=O)Nc1ccccc1C(F)(F)F,,inactive: 20.9%
O=C(O)c1cc2nccc(-c3ccco3)n2n1,,inactive: -0.68%
S=C(NCc1ccccc1)NCc1cccc(CNC(=S)NCc2ccccc2)c1,active: 31.6 µM,
CC(C)CNC(=S)N1CCC(C(=O)c2ccc(Cl)cc2)CC1,"inconclusive: 44.7 µM [inhibitor, partial curve, poor fit]",
Cc1ncsc1CN1CC(N(Cc2ccccc2)C2CCOCC2)C1,,inactive: 61.4%
O=C(Nc1cccc(C(F)(F)F)c1)N[C@H]1CO[C@H]2[C@@H]1OC[C@@H]2n1nnnc1-c1ccc2c(c1)OCO2,,inactive: 16.5%
Cc1nc2c(C(=O)N3CCN(c4ccccn4)CC3)cnn2c(C)c1Cc1cccc(Cl)c1,,inactive: -8.53%
Clc1ccc(-c2noc(C3CCCCC3)n2)cc1,"inconclusive: 2.82 µM [inhibitor, full curve, poor fit]",
Clc1ccc(CNc2ccc(CNc3ncn[nH]3)cc2)c(Cl)c1,,inactive: 357%
CCOc1ccc(OCC)c(NC(=O)CN2CCN(c3cccc(C)c3)CC2)c1,"inconclusive: 0.251 µM [inhibitor, full curve, poor fit]",
Cc1cccc(C(=O)NC(Nc2ccccc2C)C(Cl)(Cl)Cl)c1 (stereo unspecified),"inconclusive: 100 µM [inhibitor, single point]",
O=C1c2ccsc2SCCN1Cc1c(Cl)cccc1Cl,"inconclusive: 100 µM [inhibitor, partial curve, poor fit]",
COc1ccc(S(=O)(=O)Nc2cccc3c2O[C@H](CN(C)S(=O)(=O)c2ccccc2)[C@@H](C)CN([C@H](C)CO)C3=O)cc1,"inconclusive: 100 µM [inhibitor, single point]",
COc1cc(O)c(C(C)=O)c(CC(=O)O)c1,"inconclusive: 28.2 µM [inhibitor, partial curve, poor fit]",
C=CCN1c2ccccc2C(=O)CS1(=O)=O,"inconclusive: 31.6 µM [inhibitor, single point]",
CCN(C(=O)COC(=O)c1c(NC(C)=O)sc(C)c1C)c1c(N)n(Cc2ccccc2)c(=O)[nH]c1=O,,inactive: 12.8%
O=c1[nH]c2cc(O)ccc2c2ccccc12,,inactive: -10.7%
COc1ccc(C(=O)NCC(=O)OCC(=O)c2ccc(Cl)cc2)cc1OC,"inconclusive: 112 µM [inhibitor, partial curve, poor fit]",
Cc1ccc(-c2nn(-c3ccccc3)cc2C2CC(c3ccccc3)=NN2C(=O)CCC(=O)O)cc1 (stereo unspecified),,inactive: -38.7%
COc1ccc2nc3n(c2c1)[C@@H](CNC1CCOCC1)COC3,,inactive: -1.45% [at 176 µM]
COCc1nnc(NC(=O)CSCc2ccccc2)s1,"inconclusive: 112 µM [inhibitor, single point]",

SMILES,Potency,"activity change, negative = inhibition"
CCN1C(=O)[C@H]2[C@H]3CN=C(SCc4ccc(Cl)cc4)N3[C@@](C)(C(=O)OC)[C@H]2C1=O,"inconclusive: 50.1 µM [inhibitor, partial curve, poor fit]",
Cc1cc(F)ccc1NC(=O)Cn1cnc2c1c(=O)n(C)c(=O)n2C,"inconclusive: 39.8 µM [inhibitor, partial curve, poor fit]",
Cc1nn(Cc2ccc(F)cc2)c2sc(C(=O)N3CCN(CC(=O)N4CCCC4)CC3)cc12,,inactive: 39.3%
O=[N+]([O-])c1ccc(C(=C(c2ccccc2)c2ccccc2)c2ccc([N+](=O)[O-])cc2)cc1,"inconclusive: 2.24 µM [inhibitor, full curve, poor fit]",
CC(=O)N1CCc2c(sc3c2c(=O)n(Cc2ccccc2)c(=O)n3Cc2ccc(C)cc2)C1,,inactive: -15.2%
Cc1cc(C(=O)O)ccc1-n1c(C)cc(C=C2C(=O)c3ccccc3C2=O)c1C,"inconclusive: 44.7 µM [inhibitor, partial curve]",
C/C(=N\NC(=S)NCc1ccccc1)c1ccccc1,active: 39.8 µM,
CCOc1ccc(OCC)c(NC(=O)CN2CCN(CC(=O)NC(C)C)CC2)c1,"inconclusive: 0.447 µM [inhibitor, full curve, poor fit]",
O=c1c(-c2ccc(Cl)cc2)nc2cnc(N3CCNCC3)nc2n1Cc1cccs1,"inconclusive: 79.4 µM [inhibitor, partial curve, poor fit]",
COc1ccc(C(=O)NC(=S)NNC(=O)[C@H]2C[C@@H]2c2ccccc2)cc1OC,"inconclusive: 100 µM [inhibitor, partial curve, poor fit]",
Cc1ccccc1OCC(O)Cn1c(N)nc2c1c(=O)n(C)c(=O)n2C (stereo unspecified),,inactive: -14.7%
CC1CC(C)CN(CCOCCSc2ccccc2)C1 (stereo unspecified),"inconclusive: 1 µM [inhibitor, full curve]",
CC(=O)n1cc([C@@H]2C=C(C(=O)Nc3ccccc3)O[C@H](OCCCCO)C2)c2ccccc21,"inconclusive: 35.5 µM [inhibitor, partial curve, poor fit]",
CCN(CC)C(=O)[C@H]1C[C@H](CC(=O)NCCN2CCOCC2)C(=O)N2CCc3c([nH]c4cc(-c5ccco5)ccc34)[C@]12C,"inconclusive: 112 µM [inhibitor, single point]",
O=C(NC[C@H]1O[C@@H](CO)[C@@H](O)[C@H]1N1CCN(c2cccc(C(F)(F)F)c2)CC1)c1ccc(C(F)(F)F)cc1,"inconclusive: 3.55 µM [inhibitor, full curve]",
Cc1ccc(C)c(NC(=O)CCc2ncc(-c3c(F)cccc3F)o2)c1,"inconclusive: 20 µM [inhibitor, full curve]",
COc1ccc(Br)cc1/C=C(/C#N)C(=O)C(C)(C)C,"inconclusive: 31.6 µM [inhibitor, single point]",
Cc1ccc2[nH]c(C)c(/C=C/c3cc[n+](C)cc3)c2c1,"inconclusive: 12.6 µM [inhibitor, partial curve, poor fit] and inconclusive: 44.7 µM [inhibitor, partial curve, poor fit]",
Cc1cc2c(cc1NC(=O)c1ccccc1C)n(C)c(=O)c(=O)n2C,,inconclusive: -30.1% [inhibitor]
COc1ccc(-c2noc(C(=O)O)c2[C@@H](C)NS(=O)(=O)CC(C)C)cc1,"inconclusive: 63.1 µM [inhibitor, full curve]",
COC(=O)c1c(C#N)c(N)nc2c1CCC2,"inconclusive: 100 µM [inhibitor, partial curve, poor fit]",
CSc1ccccc1C(=O)N1CCCC(CCC(=O)NCc2ccc(F)c(F)c2)C1 (stereo unspecified),,inactive: 6.46%

# In the list so far, these contain a CF3 group:
SMILES,Potency,"activity change, negative = inhibition"
CCN(CC(=O)Nc1ccccc1OC)CC(=O)Nc1ccccc1C(F)(F)F,,inactive: 20.9%
O=C(Nc1cccc(C(F)(F)F)c1)N[C@H]1CO[C@H]2[C@@H]1OC[C@@H]2n1nnnc1-c1ccc2c(c1)OCO2,,inactive: 16.5%
O=C(NC[C@H]1O[C@@H](CO)[C@@H](O)[C@H]1N1CCN(c2cccc(C(F)(F)F)c2)CC1)c1ccc(C(F)(F)F)cc1,"inconclusive: 3.55 µM [inhibitor, full curve]",

# (more compounds)

SMILES,Potency,"activity change, negative = inhibition"
C(=C\c1ccccc1)/CN1CCN(C(c2ccccc2)c2nnnn2-c2ccc3c(c2)OCCO3)CC1 (stereo unspecified),"inconclusive: 141 µM [inhibitor, single point]",
Cc1ccc(C(=O)Nc2cc(C(C)C)c(O)c(C(C)C)c2)cc1,,inactive: -11.1%
CCOC(=O)C1=C(O)C(=O)N(c2ccccc2)C1c1cccc([N+](=O)[O-])c1 (stereo unspecified),"inconclusive: 39.8 µM [inhibitor, partial curve, poor fit]",
COc1ccc(-n2c(SCc3ccccn3)nc3c(c2=O)SCC3)cc1OC,"inconclusive: 44.7 µM [inhibitor, partial curve, poor fit]",
O=C(CSc1n[nH]c(-c2ccco2)n1)Nc1sc2c(c1C(=O)Nc1ccccc1)CCCC2,,inactive: 0%
CCC(C)NC(=O)CSC1=Nc2ccccc2C2=NC(c3ccccc3)C(=O)N12 (stereo unspecified),"inconclusive: 25.1 µM [inhibitor, partial curve, poor fit]",
O=C(NCCN1CCOCC1)c1noc2c1CCc1ccccc1-2,,inactive: -1.53%
COc1ccccc1OCC(=O)Nc1cc2c(cc1C(=O)O)OCCCO2,"inconclusive: 79.4 µM [inhibitor, partial curve, poor fit]",
O=C(NC1CCN(Cc2ccccc2)CC1)C1CCCN(c2cnc3nccnc3c2)C1 (stereo unspecified),"inconclusive: 44.7 µM [inhibitor, partial curve, poor fit]",
COc1ccc(OCC(=O)Nc2ccc(OC)c3ncccc23)cc1,,inactive: 13.8%
O=c1oc2ccc(Br)cc2cc1-c1csc(Nc2ccccc2)n1,"inconclusive: 5.01 µM [inhibitor, full curve, poor fit]",
O=C(Nc1ccc(OC(F)(F)F)cc1)c1cc(S(=O)(=O)N2CCCCC2)ccc1N1CCOCC1,,inactive: -1.16%
CCOc1ccc(C(F)(F)F)cc1N,,inactive: -5.23%
CCc1ccc(CNC(=O)CCCN2C(=O)CCn3nc(-c4cccn4C)cc32)cc1,"inconclusive: 56.2 µM [inhibitor, partial curve, poor fit]",
CC(C)CCN(Cc1ccco1)C(=O)c1cc2c(s1)-c1ccccc1OC2,,inactive: 0%
FC(F)(F)c1ccc(Sc2ncccn2)nc1,,inactive: -45.1%
COc1cc(-c2nnc(SCCOc3ccc(Cl)cc3)o2)cc(OC)c1OC,,inconclusive: -35.7% [inhibitor]
CCCN1CCS(=O)(=O)N(Cc2cn(CC(=O)OCC)nn2)C(C(=O)OC)C1 (stereo unspecified),"inconclusive: 17.8 µM [inhibitor, full curve, poor fit]",
COc1ccc(N2CCC(CNC(=S)Nc3cc(C)ccc3C)C2)cc1 (stereo unspecified),"inconclusive: 70.8 µM [inhibitor, partial curve, poor fit]",
Cc1ccc(-c2cc(C(=O)Nc3nncs3)c3ccccc3n2)c(C)c1,"inconclusive: 12.6 µM [inhibitor, full curve, poor fit]",
O=C(OCCN1CCOCC1)c1ccc(Cl)cc1Cl,"inconclusive: 79.4 µM [inhibitor, partial curve, poor fit]",
CCC(=O)Nc1c(-c2cc(=O)oc3ccc(C(C)C)cc23)oc2ccccc12,"inconclusive: 35.5 µM [inhibitor, partial curve, poor fit]",

# 3 compounds out of the list, arranged by SMILES length, ascending:
SMILES,Potency,"activity change, negative = inhibition"
CCN(CC(=O)Nc1ccccc1OC)CC(=O)Nc1ccccc1C(F)(F)F,,inactive: 20.9%
CCOc1ccc(OCC)c(NC(=O)CN2CCN(CC(=O)NC(C)C)CC2)c1,"inconclusive: 0.447 µM [inhibitor, full curve, poor fit]",
Cc1cc(C(=O)O)ccc1-n1c(C)cc(C=C2C(=O)c3ccccc3C2=O)c1C,"inconclusive: 44.7 µM [inhibitor, partial curve]",
